{"source": "patent EP0297535A2", "about": "“Drug delivery devices” (VIPONT PHARMACEUTICAL, INC., priority 1987, dated 1989)", "origin": "cited, not measured here", "key": {"[1]": {"tested_on": "Actinobacillus actinomycetemcomitans"}, "[2]": {"tested_on": "Bacteroides melaninogenicas"}, "[3]": {"tested_on": "Caprocytophaga gingivalis"}}, "note": "For at least one compound, name, drawing or mass did not settle the structure.", "data": [{"smiles": "C[n+]1cc2c3c(ccc2c2ccc4cc5c(cc4c21)OCO5)OCO3", "note": "[Sanguinarine, sanguinarine]", "values": [{"measurement": "MIC", "setting": "[1]", "result": "8 to 16", "unit": "µg/mL"}, {"measurement": "MIC", "setting": "Bacteroides gingivalis", "result": 2, "unit": "µg/mL"}, {"measurement": "MIC", "setting": "[2]", "result": 8, "unit": "µg/mL"}, {"measurement": "MIC", "setting": "Fusobacterium nucleatum", "result": 4, "unit": "µg/mL"}, {"measurement": "MIC", "setting": "[3]", "result": 4, "unit": "µg/mL"}, {"measurement": "MIC", "setting": "Wolinella recta", "result": 4, "unit": "µg/mL"}, {"measurement": "MIC", "setting": "Bacteroides oralis", "result": 8, "unit": "µg/mL"}, {"measurement": "MIC", "setting": "Eikenella corrodens", "result": 16, "unit": "µg/mL"}]}]}
